PubChem BioAssay AID652243, Drosophila RNAi Screening Center, 2013

Purpose: 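Knock-downs that decrease or increase androgen receptor reporter signal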 (primary screen)
System: Drosophila S2R+ cells
Reagents: long dsRNA against Drosophila genes
Timing: 72 h (48 h, then 24 h hormone)
Challenge: synthetic androgen R1881 at 10 nM for 24 h
Read-out: 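Firefly light from an androgen-responsive reporter and Renilla control light per well, raw and unnormalised, for each of two replicates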
Reading the numbers: firefly reporter light: higher = more light from androgen-responsive reporter; Renilla control light: higher = more constitutive control signal (cell number, transfection)
Call rule: 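Hit when the log firefly-to-Renilla ratio dropped or increased by a fixed fold versus the mean of GFP or LacZ controls across duplicate plates; lowering cut given as 1.5 and as 3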
Meaning of the calls: active = hit: reporter lowered or raised; inactive = no hit
The deposit covers about 24,000 reagents; this is an unselected part of those that have a named target and a result. In the full data, 246 (1%) were called active. 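Plates not normalised; calls are printed but the firefly/Renilla ratio behind them is not deposited; fold cut for lowering reported inconsistently.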 Raw values are not corrected between plates. Reagents against one gene are numbered here. The record does not give: the amount of reagent.

The opening 4 records, ahead of the listing:
Target gene	reagent	firefly reporter light, replicate 1	firefly reporter light, replicate 2	Renilla control light, replicate 1	Renilla control light, replicate 2	outcome
croc	1	2.75e5	3.15e5	2.00e6	2.63e6	inactive
croc	2	4.28e5	5.60e5	1.23e6	1.23e6	inactive
Hakai	1	9.89e5	9.08e5	8.40e5	1.61e6	inactive
BobA	1	3.24e5	1.84e5	3.37e6	2.32e6	inactive

Main list, repeating the preview:
Target gene	reagent	firefly reporter light, replicate 1	firefly reporter light, replicate 2	Renilla control light, replicate 1	Renilla control light, replicate 2	outcome
croc	1	2.75e5	3.15e5	2.00e6	2.63e6	inactive
croc	2	4.28e5	5.60e5	1.23e6	1.23e6	inactive
Hakai	1	9.89e5	9.08e5	8.40e5	1.61e6	inactive
BobA	1	3.24e5	1.84e5	3.37e6	2.32e6	inactive
CG10748	1	1.90e5	1.96e5	2.41e6	1.83e6	inactive
CG31949	1	2.50e5	3.22e5	7.08e5	7.88e5	inactive
CG31642	1	4.57e5	7.20e5	1.03e6	1.19e6	inactive
CG31642	2	2.19e5	2.17e5	6.78e5	5.54e5	inactive
ppk14	1	2.13e5	1.50e5	1.85e6	1.55e6	inactive
CG11997	1	1.60e5	2.09e5	3.19e6	2.92e6	inactive
CG11997	2	2.83e5	2.83e5	5.06e5	5.62e5	inactive
CG12012	1	1.74e5	1.89e5	1.69e6	2.19e6	inactive
Hus1-like	1	53625	92924	1.79e6	1.31e6	inactive
CG2794	1	1.66e5	2.06e5	8.16e5	1.00e6	inactive
Cpr67Fa2	1	3.41e5	2.86e5	4.18e6	3.54e6	inactive
byn	1	2.68e5	3.17e5	3.67e6	3.21e6	inactive
byn	2	4.99e5	7.27e5	9.17e5	1.20e6	inactive
Cpr49Ah	1	1.69e5	1.68e5	8.51e5	1.33e6	inactive
Cpr49Ah	2	5.40e5	1.05e6	1.43e6	1.43e6	inactive
eIF6	1	8.69e5	1.10e6	1.47e6	1.98e6	inactive
eIF6	2	5.21e5	5.04e5	1.42e6	1.31e6	inactive
Cyp4p1	1	4.38e5	2.56e5	2.48e6	2.12e6	inactive
Cyp4p1	2	3.03e5	3.88e5	8.86e5	8.84e5	inactive
CG3557	1	8.58e5	8.15e5	3.25e6	2.02e6	inactive
CG15022	1	1.57e5	1.69e5	8.67e5	9.93e5	inactive
CG15022	2	7.52e5	7.52e5	8.27e5	8.12e5	inactive
bnb	1	85191	85302	6.94e5	7.80e5	inactive
bnb	2	2.02e5	2.80e5	4.65e5	8.57e5	inactive
hay	1	1.13e6	7.96e5	7.73e5	1.03e6	inactive
Moe	1	84877	1.20e5	6.03e5	6.36e5	inactive
Moe	2	1.01e6	1.13e6	2.07e6	1.91e6	inactive
CG15864	1	1.01e5	1.11e5	2.14e6	2.11e6	inactive
CG15864	2	5.43e5	4.18e5	6.50e5	6.85e5	inactive
WASp	1	1.66e5	1.74e5	2.83e6	2.92e6	inactive
WASp	2	3.66e5	3.84e5	4.55e5	5.26e5	inactive
Pgi	1	8.90e5	7.94e5	1.05e6	1.25e6	inactive
RpL34b	1	1.26e5	1.14e5	3.02e6	2.54e6	inactive
Hipk	1	48096	55885	2.97e5	3.37e5	active
Hipk	2	6.02e5	5.60e5	1.49e6	1.73e6	inactive
Hipk	3					inactive
Hipk	4					inactive
